# Patent US6831088B2, “3-heterocyclypropanohydroxamic acid PCP inhibitors” (Pfizer Inc., priority 2001, dated 2004)
# Some entries share one result that the patent states for a list of compounds.
# Biological target: T1, human PCP (Homo sapiens, UniProt P13497)
# T1 construct: made in house
# T1 sequence (P13497 121-986): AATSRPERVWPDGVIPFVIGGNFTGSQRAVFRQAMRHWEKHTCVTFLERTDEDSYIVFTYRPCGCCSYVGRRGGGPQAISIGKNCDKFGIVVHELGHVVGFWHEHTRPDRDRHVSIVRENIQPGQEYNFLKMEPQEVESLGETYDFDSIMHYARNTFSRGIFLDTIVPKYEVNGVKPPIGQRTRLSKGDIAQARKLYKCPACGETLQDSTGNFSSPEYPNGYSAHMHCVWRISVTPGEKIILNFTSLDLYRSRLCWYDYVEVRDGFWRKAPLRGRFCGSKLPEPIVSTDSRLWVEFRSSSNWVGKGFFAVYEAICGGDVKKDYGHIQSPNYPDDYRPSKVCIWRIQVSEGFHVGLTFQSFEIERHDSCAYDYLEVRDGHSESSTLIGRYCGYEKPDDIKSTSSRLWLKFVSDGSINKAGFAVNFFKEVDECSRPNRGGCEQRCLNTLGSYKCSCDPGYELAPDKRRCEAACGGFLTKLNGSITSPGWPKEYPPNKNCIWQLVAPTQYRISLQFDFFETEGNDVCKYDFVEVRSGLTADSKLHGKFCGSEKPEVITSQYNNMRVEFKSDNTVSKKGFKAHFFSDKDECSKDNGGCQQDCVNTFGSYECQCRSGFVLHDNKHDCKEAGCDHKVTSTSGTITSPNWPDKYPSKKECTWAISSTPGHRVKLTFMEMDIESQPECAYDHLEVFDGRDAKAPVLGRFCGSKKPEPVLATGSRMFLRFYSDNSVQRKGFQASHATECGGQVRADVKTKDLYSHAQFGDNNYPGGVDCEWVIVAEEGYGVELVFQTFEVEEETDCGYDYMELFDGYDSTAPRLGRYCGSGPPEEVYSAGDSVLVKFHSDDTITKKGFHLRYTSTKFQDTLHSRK
# Test: fluorogenic PCP cleavage assay
# Assay type: biochemical
# Conditions: fluorogenic substrate 3×10^−6 M, pH 7.6, 37° C.
row,Compound,IC50 [µM]
1,"O=C(C[C@@H](CCCC1CCCCC1)c1nc(C(=O)NS(=O)(=O)c2cccnc2)no1)NO [Example 12, (3R)-6-Cyclohexyl-N-hydroxy-3-(3-{[(3-pyridylsulfonyl)amino]carbonyl)-1,2,4-oxadiazol-5-yl)hexanamide]",≤ 100
2,"O=C(C[C@@H](CCCC1CCCCC1)c1nc(C(=O)NS(=O)(=O)c2ccc(F)cc2)no1)NO [Example 4, (3R)-6-Cyclohexyl-3-(3({[(4-fluorophenyl)sulfonyl]amino}carbonyl)-1,2,4-oxadiazol-5-yl]-N-hydroxyhexanamide]",≤ 100
3,"COc1ccc(S(=O)(=O)NC(=O)c2noc([C@H](CCCC3CCCCC3)CC(=O)NO)n2)cc1OC [Example 6, (3R)-6-Cyclohexyl-3-[3-({[(3,4-dimethoxyphenyl)sulfonyl]amino}carbonyl)-1,2,4-oxadiazol-5-yl]-N-hydroxyhexanamide]",≤ 100
4,COc1ccc(S(=O)(=O)NC(=O)c2noc([C@H](CCCC3CCCCC3)CC(=O)NO)n2)cc1 [Example 3],≤ 100
5,"O=C(C[C@@H](CCCC1CCCCC1)c1nc(C(=O)NS(=O)(=O)c2cccc3cccnc23)no1)NO [Example 7, (3R)-6-Cyclohexyl-N-hydroxy-3-(3-{[(8-quinolinylsulfonyl)amino]carbonyl}-1,2,4-oxadiazol-5-yl)hexanamide]",≤ 100
6,"CC(C)c1ccc(S(=O)(=O)NC(=O)c2noc([C@H](CCCC3CCCCC3)CC(=O)NO)n2)cc1 [Example 5, (3R)-6-Cyclohexyl-N-hydroxy-3-[3-({[(4-isopropylphenyl)sulfonyl]amino}carbonyl)-1,2,4-oxadiazol-5-yl]hexanamide]",≤ 100
7,"CN(C(=O)c1noc([C@H](CCCC2CCCCC2)CC(=O)NO)n1)S(C)(=O)=O [Example 10, (3R)-6-Cyclohexyl-N-hydroxy-3-(3-{[methyl(methylsulfonyl)amino]carbonyl}-1,2,4-oxadiazol-5-yl]hexanamide]",≤ 100
8,O=C(C[C@@H](CCCC1CCCCC1)c1nc(C(=O)NS(=O)(=O)Cc2ccccc2)no1)NO [Example 11],≤ 100
9,CC(C)S(=O)(=O)NC(=O)c1noc([C@H](CCCC2CCCCC2)CC(=O)NO)n1 [Example 9],≤ 100
10,"O=C(C[C@@H](CCCC1CCCCC1)c1nc(C(=O)NS(=O)(=O)c2ccccc2)no1)NO [Example 1, (3R)-6-Cyclohexyl-N-hydroxy-3-(3-{[(phenylsulfonyl)amino]carbonyl}-1,2,4-oxadiazol-5-yl)hexanamide]",≤ 100
11,"Cc1noc(C)c1S(=O)(=O)NC(=O)c1noc([C@H](CCCC2CCCCC2)CC(=O)NO)n1 [Example 8, (3R)-6-Cyclohexyl-3-[3-({[(3,5-dimethyl-4-isoxazolyl)sulfonyl]amino}carbonyl)-1,2,4-oxadiazol-5-yl]-N-hydroxyhexanamide]",≤ 100
